Test [1] deals with T1, Myc-tagged TMED9 R223E (MYC-TMED9 R223E in pcDNA3.1(+)) (human) (UniProt Q9BVK6).
T1 sequence: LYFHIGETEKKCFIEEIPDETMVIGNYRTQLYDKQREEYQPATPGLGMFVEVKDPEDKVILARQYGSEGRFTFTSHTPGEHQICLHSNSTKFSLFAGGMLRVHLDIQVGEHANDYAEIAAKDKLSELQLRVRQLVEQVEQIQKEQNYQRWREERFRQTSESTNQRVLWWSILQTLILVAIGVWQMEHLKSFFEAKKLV
As to the kind of experiment: co-IP; HEK293T transfected with Myc-TMED9; lysis in 100 mM NaCl, 5 mM EDTA, 50 mM tris pH 7.5, 1% NP-40; anti-c-MYC magnetic beads, 30 min at room temperature, washes with 5x TBST; blots of endogenous proteins.

The chains behind the UniProt entries cited, without tags or fusion partners.
UniProt Q15436: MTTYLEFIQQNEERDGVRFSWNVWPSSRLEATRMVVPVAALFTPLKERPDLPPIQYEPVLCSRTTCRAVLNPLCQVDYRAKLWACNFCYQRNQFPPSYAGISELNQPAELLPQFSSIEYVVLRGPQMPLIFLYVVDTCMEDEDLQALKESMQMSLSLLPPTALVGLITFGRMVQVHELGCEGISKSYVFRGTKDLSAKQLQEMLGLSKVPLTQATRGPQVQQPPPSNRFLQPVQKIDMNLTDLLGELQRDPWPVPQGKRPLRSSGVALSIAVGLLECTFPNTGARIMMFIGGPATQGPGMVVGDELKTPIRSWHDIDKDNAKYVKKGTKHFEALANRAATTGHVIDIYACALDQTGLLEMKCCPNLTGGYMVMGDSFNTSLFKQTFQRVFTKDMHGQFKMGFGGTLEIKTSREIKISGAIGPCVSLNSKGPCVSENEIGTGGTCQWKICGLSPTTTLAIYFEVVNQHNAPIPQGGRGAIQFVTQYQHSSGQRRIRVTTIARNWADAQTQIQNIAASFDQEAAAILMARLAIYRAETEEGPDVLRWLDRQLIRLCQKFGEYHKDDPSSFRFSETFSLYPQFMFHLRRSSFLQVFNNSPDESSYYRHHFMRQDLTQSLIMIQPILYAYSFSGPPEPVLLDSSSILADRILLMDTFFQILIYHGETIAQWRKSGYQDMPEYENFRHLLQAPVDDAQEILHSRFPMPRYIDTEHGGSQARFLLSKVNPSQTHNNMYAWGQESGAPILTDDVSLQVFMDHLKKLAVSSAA

Test [2] has as its target T2, Myc-tagged TMED9 (MYC-TMED9 in pcDNA3.1(+)) (human) (UniProt Q9BVK6).
T2 sequence: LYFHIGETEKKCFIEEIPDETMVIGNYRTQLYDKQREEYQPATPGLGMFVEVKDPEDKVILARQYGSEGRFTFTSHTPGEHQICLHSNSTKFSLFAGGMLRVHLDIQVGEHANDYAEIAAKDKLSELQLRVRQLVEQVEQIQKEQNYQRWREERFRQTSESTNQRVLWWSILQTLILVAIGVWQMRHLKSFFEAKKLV
The description is as above.

For test [3], the target named is GFP-SEC23a (pEGFP-Sec23A) (UniProt Q15436). The test is described as follows: co-IP; HEK293T cotransfected with GFP-SEC23a and Myc-TMED9; GFP-Trap magnetic agarose beads, 1 hour at 4°C, two washes with 5x TBST.
For test [4], the target named is endogenous TMED9 from kidney epithelial cells (N cells) (not stated (endogenous in kidney epithelial N cells)) (UniProt Q9BVK6). As to the kind of experiment: SEC; endogenous protein from kidney epithelial cells (N cells) solubilized in LMNG+CHS. For orientation: Size exclusion chromatography separates by hydrodynamic size, large species first.

Results are given in words; binding and its absence hold for the method and conditions named. For some assays here: In cells and extracts the contact can be indirect. Some binding calls cover weakened binding; strength is not graded here. For some assays here: Tags and fused reporters may be left off the sequences shown.

B1: endogenous COPB2 (COPI coatomer subunit) (protein, UniProt P35606 1-906)
chain: MPLRLDIKRKLTARSDRVKSVDLHPTEPWMLASLYNGSVCVWNHETQTLVKTFEVCDLPVRAAKFVARKNWVVTGADDMQIRVFNYNTLERVHMFEAHSDYIRCIAVHPTQPFILTSSDDMLIKLWDWDKKWSCSQVFEGHTHYVMQIVINPKDNNQFASASLDRTIKVWQLGSSSPNFTLEGHEKGVNCIDYYSGGDKPYLISGADDRLVKIWDYQNKTCVQTLEGHAQNVSCASFHPELPIIITGSEDGTVRIWHSSTYRLESTLNYGMERVWCVASLRGSNNVALGYDEGSIIVKLGREEPAMSMDANGKIIWAKHSEVQQANLKAMGDAEIKDGERLPLAVKDMGSCEIYPQTIQHNPNGRFVVVCGDGEYIIYTAMALRNKSFGSAQEFAWAHDSSEYAIRESNSIVKIFKNFKEKKSFKPDFGAESIYGGFLLGVRSVNGLAFYDWDNTELIRRIEIQPKHIFWSDSGELVCIATEESFFILKYLSEKVLAAQETHEGVTEDGIEDAFEVLGEIQEIVKTGLWVGDCFIYTSSVNRLNYYVGGEIVTIAHLDRTMYLLGYIPKDNRLYLGDKELNIISYSLLVSVLEYQTAVMRRDFSMADKVLPTIPKEQRTRVAHFLEKQGFKQQALTVSTDPEHRFELALQLGELKIAYQLAVEAESEQKWKQLAELAISKCQFGLAQECLHHAQDYGGLLLLATASGNANMVNKLAEGAERDGKNNVAFMSYFLQGKVDACLELLIRTGRLPEAAFLARTYLPSQVSRVVKLWRENLSKVNQKAAESLADPTEYENLFPGLKEAFVVEEWVKETHADLWPAKQYPLVTPNEERNVMEEGKDFQPSRSTAQQELDGKPASPTPVIVASHTANKEEKSLLELEVDLDNLELEDIDTTDINLDEDILDD
As for B1, the binding entry in test [1] and in test [2] was “binds” in each case.

B2: Myc-tagged TMED9 (MYC-TMED9 in pcDNA3.1(+)) (receptor, UniProt Q9BVK6 38-235)
chain: LYFHIGETEKKCFIEEIPDETMVIGNYRTQLYDKQREEYQPATPGLGMFVEVKDPEDKVILARQYGSEGRFTFTSHTPGEHQICLHSNSTKFSLFAGGMLRVHLDIQVGEHANDYAEIAAKDKLSELQLRVRQLVEQVEQIQKEQNYQRWREERFRQTSESTNQRVLWWSILQTLILVAIGVWQMRHLKSFFEAKKLV
For B2, in test [3], the binding result is on record as “binds”.

B3: Myc-tagged TMED9 R223E (MYC-TMED9 R223E in pcDNA3.1(+)) (receptor, UniProt Q9BVK6 38-235)
chain: LYFHIGETEKKCFIEEIPDETMVIGNYRTQLYDKQREEYQPATPGLGMFVEVKDPEDKVILARQYGSEGRFTFTSHTPGEHQICLHSNSTKFSLFAGGMLRVHLDIQVGEHANDYAEIAAKDKLSELQLRVRQLVEQVEQIQKEQNYQRWREERFRQTSESTNQRVLWWSILQTLILVAIGVWQMEHLKSFFEAKKLV
Turning to B3, in test [3], the binding entry is on record as “binds”.

B4: endogenous TMED9 from kidney epithelial cells (N cells) (receptor, UniProt Q9BVK6 38-235)
chain: LYFHIGETEKKCFIEEIPDETMVIGNYRTQLYDKQREEYQPATPGLGMFVEVKDPEDKVILARQYGSEGRFTFTSHTPGEHQICLHSNSTKFSLFAGGMLRVHLDIQVGEHANDYAEIAAKDKLSELQLRVRQLVEQVEQIQKEQNYQRWREERFRQTSESTNQRVLWWSILQTLILVAIGVWQMRHLKSFFEAKKLV
On to B4, for which the binding result in test [4] was “binds”.

These data come from article PMC11414720.
